Reference: US20120294860A1 (TORAY INDUSTRIES, published 2012)
No constants are given. Whether binding was seen depends on the method and setting. For part of these data: Binding seen in cells or lysates may run through a third protein. Some binding calls cover weakened binding; strength is not graded here.

Experiments:
[1] = target: T1, human CAPRIN-1 protein expressed on the surface of human cancer cells (human) (UniProt Q14444); test: as described in the legend of FIG. 2 (MDA-MB-157 cells)
T1 sequence: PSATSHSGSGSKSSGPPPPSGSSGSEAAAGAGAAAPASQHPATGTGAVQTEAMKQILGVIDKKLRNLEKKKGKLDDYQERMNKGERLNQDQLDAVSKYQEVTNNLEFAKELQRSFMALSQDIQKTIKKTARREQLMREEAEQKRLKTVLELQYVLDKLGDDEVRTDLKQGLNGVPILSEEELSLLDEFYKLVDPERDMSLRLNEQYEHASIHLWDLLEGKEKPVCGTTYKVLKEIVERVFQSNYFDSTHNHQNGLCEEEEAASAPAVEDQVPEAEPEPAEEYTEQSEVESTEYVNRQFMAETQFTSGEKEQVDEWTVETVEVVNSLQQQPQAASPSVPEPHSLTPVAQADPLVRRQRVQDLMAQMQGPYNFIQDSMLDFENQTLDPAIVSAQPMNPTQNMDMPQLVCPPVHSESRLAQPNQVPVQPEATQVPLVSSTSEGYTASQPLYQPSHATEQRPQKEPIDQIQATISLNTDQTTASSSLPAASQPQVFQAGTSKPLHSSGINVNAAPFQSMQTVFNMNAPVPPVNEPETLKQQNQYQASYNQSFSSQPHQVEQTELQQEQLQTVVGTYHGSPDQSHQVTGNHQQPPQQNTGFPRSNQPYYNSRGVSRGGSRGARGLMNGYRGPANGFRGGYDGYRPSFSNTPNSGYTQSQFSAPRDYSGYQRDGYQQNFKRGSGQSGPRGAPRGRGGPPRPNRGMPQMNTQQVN

[2] = target: T2, polypeptide of SEQ ID NO: 37, partial CAPRIN-1 sequence (human); test: trypsin digestion of antibody-bound reduced/alkylated CAPRIN-1, protein A beads, LC-MS of the eluate
T2 sequence (peptide): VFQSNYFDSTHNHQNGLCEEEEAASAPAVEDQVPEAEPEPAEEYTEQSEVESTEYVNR

[3] = target: T1, human CAPRIN-1 protein expressed on the surface of human cancer cells (human); test: flow cytometry on MDA-MB-231V human breast cancer cells, hybridoma culture supernatant

binding [1]: binds | binding [2]: binds | binding [3]: binds
B1: anti-CAPRIN-1 monoclonal antibody #1 (antibody, V domains shown)
VH: EVQLHQFGAELVKPGASVKISCKASGYTFTDYNMDWVKQSHGKSLEWIGDINPNYDSTSYNQKFKGKATLTVDKSSSTAYMELRSLTSEDTAVYYCARSRSYDYEGFAYWGQGTLVTVSA
VL: DIQMTQSPASLSASVGETVTITCRASGNIHNYLAWYQQKQGKSPQLLVYNAKTLADGVPSRFSGSGSGTQYSLKINSLQPEDFGSYYCQHFWSTLTFGAGTKLELKR
